Chains of the proteins cited; added tags and fusions are not shown.
UniProt P04049, whole entry Y340D/Y341D: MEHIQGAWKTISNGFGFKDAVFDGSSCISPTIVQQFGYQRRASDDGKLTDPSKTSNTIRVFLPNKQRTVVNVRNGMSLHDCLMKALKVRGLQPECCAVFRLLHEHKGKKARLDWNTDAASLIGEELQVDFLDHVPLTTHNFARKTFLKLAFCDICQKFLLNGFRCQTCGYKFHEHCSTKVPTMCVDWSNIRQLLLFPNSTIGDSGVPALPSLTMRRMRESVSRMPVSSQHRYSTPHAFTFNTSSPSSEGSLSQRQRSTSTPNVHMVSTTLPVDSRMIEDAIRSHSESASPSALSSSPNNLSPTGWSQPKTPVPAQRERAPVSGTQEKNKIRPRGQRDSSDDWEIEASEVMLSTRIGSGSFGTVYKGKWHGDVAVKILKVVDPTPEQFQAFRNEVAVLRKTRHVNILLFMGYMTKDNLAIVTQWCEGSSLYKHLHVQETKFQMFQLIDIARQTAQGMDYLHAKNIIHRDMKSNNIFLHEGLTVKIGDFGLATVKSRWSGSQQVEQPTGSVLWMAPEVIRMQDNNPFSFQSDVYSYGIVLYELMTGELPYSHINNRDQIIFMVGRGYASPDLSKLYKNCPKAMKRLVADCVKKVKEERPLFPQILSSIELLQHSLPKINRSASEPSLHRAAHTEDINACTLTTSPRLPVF
UniProt P15056, whole entry: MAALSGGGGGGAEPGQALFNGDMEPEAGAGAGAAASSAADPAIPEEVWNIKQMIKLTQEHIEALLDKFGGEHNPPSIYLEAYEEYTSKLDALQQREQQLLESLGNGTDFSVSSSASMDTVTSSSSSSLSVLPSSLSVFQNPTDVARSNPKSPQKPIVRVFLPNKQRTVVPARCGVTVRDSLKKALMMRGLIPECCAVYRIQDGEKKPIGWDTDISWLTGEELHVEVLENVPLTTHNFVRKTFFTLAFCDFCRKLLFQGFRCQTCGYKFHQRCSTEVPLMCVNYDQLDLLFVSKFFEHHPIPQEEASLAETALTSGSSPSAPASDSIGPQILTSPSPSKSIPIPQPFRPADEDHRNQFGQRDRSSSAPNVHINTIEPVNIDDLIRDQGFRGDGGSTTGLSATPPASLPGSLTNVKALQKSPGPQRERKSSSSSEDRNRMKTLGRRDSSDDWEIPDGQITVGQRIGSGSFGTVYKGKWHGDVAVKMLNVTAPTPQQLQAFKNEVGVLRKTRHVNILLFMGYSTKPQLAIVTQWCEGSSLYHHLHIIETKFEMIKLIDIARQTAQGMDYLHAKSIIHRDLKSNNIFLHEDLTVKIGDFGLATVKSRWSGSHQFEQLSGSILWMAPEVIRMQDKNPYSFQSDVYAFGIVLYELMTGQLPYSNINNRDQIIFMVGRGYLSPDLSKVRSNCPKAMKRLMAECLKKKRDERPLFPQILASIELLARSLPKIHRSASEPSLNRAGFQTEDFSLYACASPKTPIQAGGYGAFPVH
UniProt P15056, whole entry V600E: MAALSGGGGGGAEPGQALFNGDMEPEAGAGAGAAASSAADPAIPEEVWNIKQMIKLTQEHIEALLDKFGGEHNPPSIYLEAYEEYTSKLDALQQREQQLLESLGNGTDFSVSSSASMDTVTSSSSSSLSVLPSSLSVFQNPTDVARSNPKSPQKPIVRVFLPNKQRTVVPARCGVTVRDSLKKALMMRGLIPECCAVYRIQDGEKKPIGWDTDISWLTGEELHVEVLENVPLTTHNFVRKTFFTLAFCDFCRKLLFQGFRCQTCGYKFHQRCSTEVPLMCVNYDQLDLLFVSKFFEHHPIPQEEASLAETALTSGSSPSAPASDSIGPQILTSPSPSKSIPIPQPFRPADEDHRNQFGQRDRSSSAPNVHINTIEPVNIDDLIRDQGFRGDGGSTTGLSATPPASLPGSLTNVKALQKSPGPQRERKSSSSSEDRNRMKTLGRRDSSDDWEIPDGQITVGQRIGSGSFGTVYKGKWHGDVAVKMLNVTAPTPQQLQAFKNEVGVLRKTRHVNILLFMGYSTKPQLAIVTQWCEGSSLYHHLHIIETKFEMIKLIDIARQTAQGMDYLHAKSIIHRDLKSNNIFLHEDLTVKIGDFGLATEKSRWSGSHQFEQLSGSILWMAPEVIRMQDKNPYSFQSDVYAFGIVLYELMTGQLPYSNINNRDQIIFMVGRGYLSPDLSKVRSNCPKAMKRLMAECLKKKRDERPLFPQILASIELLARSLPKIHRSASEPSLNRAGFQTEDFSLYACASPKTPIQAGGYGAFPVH

In patent publication US9440969B2, “Compounds and methods for kinase modulation, and indications therefor” (PLEXXIKON INC., priority 2009, dated 2016):

Assays:
c-Raf-1 = c-Raf-1 (Homo sapiens, UniProt P04049); test: c-Raf-1 kinase activity assay (AlphaScreen, biotin-MEK1 substrate); details: 100 μM ATP, 100 nM biotin-MEK1, 45 minutes at room temperature; read-out: Biochemical activity (IC50 μM) c-Raf-1
Procedure: (§1) Assays for biochemical and cell based activity are known in the art, for example, as described in PCT publication WO 2007/002433, the disclosure of which is hereby incorporated by reference as it relates to such assays. For example, the biochemical activity IC50 values are determined with respect to inhibition of B-Raf kinase activity, c-Raf-1 kinase activity, or B-Raf V600E kinase activity, where inhibition of phosphorylation of a peptide substrate is measured as a function of compound concentration. Compounds to be tested are diluted in dimethyl sulfoxide to a concentration of 0.1 mM. These are serially diluted 15 μL into 30 μL of dimethyl sulfoxide seven times in 96 well plates for a total of 8 dilution points, and for each dilution point 1 μL is added to a well of an assay plate. Plates are prepared such that each well in a 384 well plate contains 1 μL of compound in 10 μL, volume with 0.1 ng Raf enzyme (i.e. any of B-Raf, c-Raf-1 or B-Raf V600E, Upstate Biotechnology or prepared by methods known to one of skill in the art), 50 mM HEPES, pH 7.0, 50 mM NaCl, 2 mM MgCl2, 1 mM MnCl2, 0.01% Tween-20, 1 mM DTT, and 100 nM biotin-MEK1 as substrate. The reaction is started with addition of 10 μL of 200 μM ATP (i.e. final 100 μM ATP). […] The plates are incubated for 3 hours at room temperature and read on Envision reader (Perkin Elmer). […]

B-Raf = B-Raf (Homo sapiens, UniProt P15056); test: B-Raf kinase activity assay (AlphaScreen, biotin-MEK1 substrate); details: 100 μM ATP, 100 nM biotin-MEK1, 45 minutes at room temperature; read-out: Biochemical activity (IC50 μM) B-Raf
Procedure: as §1

B-Raf V600E = B-Raf V600E (Homo sapiens, UniProt P15056, V600E); test: B-Raf V600E kinase activity assay (AlphaScreen, biotin-MEK1 substrate); details: 100 μM ATP, 100 nM biotin-MEK1, 45 minutes at room temperature, read-out: Biochemical activity (IC50 μM) V600E
Procedure: as §1

[1] = test system: COLO205 colon adenocarcinoma (B-Raf V600E mutation); test: COLO205 cell growth inhibition (ATPlite luminescence); assay type: cell-based; details: Homo sapiens, COLO 205, 72 h, COLO205 cells, incubated 3 days with compound
Procedure: Compounds are assessed in a variety of cell based assays. For example human cell lines with B-Raf V600E mutation (A375 melanoma, SKMEL3 melanoma, and COLO205 colon adenocarcinoma), as well as tumorigenic cell lines with wild-type B-RAF (SW620 colon adenocarcinoma) or with Ras mutations (SKMEL2 melanoma and IPC298 melanoma). Similar assays may be used to assess additional tumorigenic cell lines with Ras mutations, including, but not limited to, M202, M207, M243, M244, M296, S117, HCT116, HCT15, DLD1, MiaPaCa, A549, NCI-H23, NCI-H460, HOP62, MDA-MB231, Hs-578T, HL60, MOLT-4, and CCRF-CEM.
On day 1, cells are counted, then centrifuged in a conical tube for 5 minutes at 1000 rpm. […]
On day 5, ATPlite 1 step Luminescence Assay System (Perkin Elmer #6016739) is brought to room temperature along with the cell cultures. ATPlite is added 25 μL to each well, shake for 2 minutes, and the cells are incubated at room temperature for 10 minutes, then luminescence is read on Safire reader. The measured luminescence correlates directly with cell number, such that the reading as a function of compound concentration is used to determine the IC50 value.
It is understood that the results of these assays may vary as assay conditions are varied. Inhibition levels determined under the conditions described herein represent a relative activity for the compounds tested under the specific conditions employed. […]

In the case of `CCCS(=O)(=O)Nc1ccc(F)c(C(=O)c2c[nH]c3ncc(-c4cnc5[nH]ncc5c4)cc23)c1F` [P-0008, Propane-1-sulfonic acid {2,4-difluoro-3-[5-(1H-pyrazolo[3,4-b]pyridin-5-yl)-1H-pyrrolo[2,3-b]pyridine-3-carbonyl]-phenyl}-amide], the IC50 (c-Raf-1) is reported as under 0.1 µM, the IC50 (B-Raf) is reported as under 0.1 µM and the IC50 (B-Raf V600E) is reported as under 0.1 µM. The IC50 [1] was under 1 µM.
